pKi: −log10 of the molar value. Where two headings read alike, the source gives them in different places. Structures were worked out from names or drawings and are uncertain.
Target: Rho Kinase
Experiment: ROCK kinase inhibition assay (Rho Kinase Activity, isoform not given)
Format: biochemical
[1] = read-out: Rho Kinase Activity, Table 15, mostly given as ranges, tested form: 2HCl

## O=C(Nc1ccc2cnccc2c1)[C@@H]1C[C@H]1c1ccc(S(=O)(=O)NCc2cccnc2)cc1 (relative stereo)
read-out: Rho Kinase Activity, Table 15, mostly given as ranges
  pKi: 7.46 to 8.10

## O=C(Nc1ccc2cnccc2c1)[C@@H]1C[C@H]1c1ccc(S(=O)(=O)NC[C@H]2CCCNC2)cc1
[1]
  pKi: 8.35 to 8.70

## O=C(Nc1ccc2cnccc2c1)[C@@H]1C[C@H]1c1ccc(S(=O)(=O)NC2CCNCC2)cc1 (relative stereo)
[1]
  pKi: 8.02 to 8.30

From patent US10858339B2, “Aryl cyclopropyl-amino-isoquinolinyl amide compounds” (priority 2017, dated 2020)
